Where two headings read alike, the source gives them in different places. No constants are given. Whether binding was seen depends on the method and setting. For part of these data: Binding seen in cells or lysates may run through a third protein. Some results given as binding are weak or reduced against the parent protein; the word gives no strength. Where a sequence is shown, tags or fusion partners need not be part of it.
Key:
[1] = biological target: T1, BD-SnRK2.2 (Arabidopsis thaliana) (UniProt Q39192); assay: two-hybrid; AD fusions (pGADT7) with BD fusions in S. cerevisiae AH109; growth on SD medium lacking Leu, Trp, His in the absence or presence of 10 uM ABA (the text does not tell the two apart); 1 mM 3-AT to reduce self-activation of BD-SnRK2s; 30°C
T1 sequence: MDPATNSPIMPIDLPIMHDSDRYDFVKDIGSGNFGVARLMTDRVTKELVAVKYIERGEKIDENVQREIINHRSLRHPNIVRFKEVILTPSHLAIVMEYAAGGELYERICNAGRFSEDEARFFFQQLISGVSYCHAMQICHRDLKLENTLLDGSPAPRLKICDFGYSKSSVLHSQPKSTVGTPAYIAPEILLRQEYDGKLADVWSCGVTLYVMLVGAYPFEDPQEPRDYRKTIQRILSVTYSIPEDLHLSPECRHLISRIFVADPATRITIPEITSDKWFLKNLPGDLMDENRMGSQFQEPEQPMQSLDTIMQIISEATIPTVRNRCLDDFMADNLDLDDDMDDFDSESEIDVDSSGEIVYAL

Sequences of proteins named here, by UniProt entry; tags and fusion partners are left off.
UniProt P30366: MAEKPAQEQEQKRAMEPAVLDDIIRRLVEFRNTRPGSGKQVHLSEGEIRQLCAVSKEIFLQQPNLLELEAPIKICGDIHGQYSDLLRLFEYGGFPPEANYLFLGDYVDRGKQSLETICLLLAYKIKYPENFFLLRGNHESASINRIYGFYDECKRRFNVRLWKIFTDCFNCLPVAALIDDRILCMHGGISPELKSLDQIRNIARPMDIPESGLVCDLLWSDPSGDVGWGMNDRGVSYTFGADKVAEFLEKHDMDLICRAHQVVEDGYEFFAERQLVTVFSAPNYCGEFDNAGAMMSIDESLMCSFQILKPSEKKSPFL
UniProt P48482: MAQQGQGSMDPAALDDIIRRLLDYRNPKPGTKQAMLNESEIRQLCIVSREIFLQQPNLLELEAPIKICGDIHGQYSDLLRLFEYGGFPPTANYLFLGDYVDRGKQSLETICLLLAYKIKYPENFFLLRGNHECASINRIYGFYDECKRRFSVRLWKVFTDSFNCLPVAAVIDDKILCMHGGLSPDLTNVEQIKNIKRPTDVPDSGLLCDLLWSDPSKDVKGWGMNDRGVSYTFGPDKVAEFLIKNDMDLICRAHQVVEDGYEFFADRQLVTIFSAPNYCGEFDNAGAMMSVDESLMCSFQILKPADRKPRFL
UniProt P49597: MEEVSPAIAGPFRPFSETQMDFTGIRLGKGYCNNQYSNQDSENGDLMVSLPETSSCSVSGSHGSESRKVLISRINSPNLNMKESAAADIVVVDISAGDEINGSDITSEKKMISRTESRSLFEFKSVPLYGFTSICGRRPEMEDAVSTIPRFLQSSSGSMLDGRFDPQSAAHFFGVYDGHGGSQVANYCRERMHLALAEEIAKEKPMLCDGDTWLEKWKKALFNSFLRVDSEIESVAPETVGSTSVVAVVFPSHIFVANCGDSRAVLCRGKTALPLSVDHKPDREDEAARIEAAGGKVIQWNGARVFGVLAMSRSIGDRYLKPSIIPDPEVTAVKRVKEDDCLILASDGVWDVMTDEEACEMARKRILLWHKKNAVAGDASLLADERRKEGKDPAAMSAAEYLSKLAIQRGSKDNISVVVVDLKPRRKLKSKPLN

[2] = biological target: T2, BD-SnRK2.6 (Arabidopsis thaliana) (UniProt Q940H6); assay: as above
T2 sequence: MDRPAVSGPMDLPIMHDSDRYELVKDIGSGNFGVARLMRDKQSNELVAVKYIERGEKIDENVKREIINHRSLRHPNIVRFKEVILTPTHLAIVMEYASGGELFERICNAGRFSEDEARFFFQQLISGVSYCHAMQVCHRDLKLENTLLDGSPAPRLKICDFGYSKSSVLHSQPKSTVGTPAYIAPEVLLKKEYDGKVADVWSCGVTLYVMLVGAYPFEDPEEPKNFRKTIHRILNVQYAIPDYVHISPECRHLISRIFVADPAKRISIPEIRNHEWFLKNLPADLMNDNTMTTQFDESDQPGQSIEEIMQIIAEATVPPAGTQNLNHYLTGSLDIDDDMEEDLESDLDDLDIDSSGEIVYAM

[3] = biological target: T3, PYL11-nLUC (Arabidopsis thaliana) (UniProt Q9FJ50); assay: split reporter; split-luciferase complementation in N. benthamiana leaves with FLAG-AtI-2 co-expressed as a third protein
T3 sequence: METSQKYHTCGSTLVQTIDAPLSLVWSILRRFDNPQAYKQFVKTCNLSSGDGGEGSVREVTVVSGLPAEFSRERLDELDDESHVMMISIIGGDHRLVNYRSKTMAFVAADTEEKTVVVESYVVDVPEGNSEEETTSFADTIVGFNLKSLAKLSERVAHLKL

[4] = biological target: T4, SnRK2.6-nLUC (Arabidopsis thaliana) (UniProt Q940H6); assay: as above
T4 sequence: T2 sequence

[5] = biological target: T3, PYL11-nLUC (Arabidopsis thaliana); assay: split reporter; split-luciferase complementation; nLUC and cLUC fusions co-expressed in N. benthamiana leaves by Agrobacterium infiltration, LUC activity imaged after 2 days
[6] = biological target: T5, SnRK2.2-nLUC (Arabidopsis thaliana) (UniProt Q39192); assay: as above
T5 sequence: T1 sequence

[7] = biological target: T6, SnRK2.3-nLUC (Arabidopsis thaliana) (UniProt Q39193); assay: as above
T6 sequence: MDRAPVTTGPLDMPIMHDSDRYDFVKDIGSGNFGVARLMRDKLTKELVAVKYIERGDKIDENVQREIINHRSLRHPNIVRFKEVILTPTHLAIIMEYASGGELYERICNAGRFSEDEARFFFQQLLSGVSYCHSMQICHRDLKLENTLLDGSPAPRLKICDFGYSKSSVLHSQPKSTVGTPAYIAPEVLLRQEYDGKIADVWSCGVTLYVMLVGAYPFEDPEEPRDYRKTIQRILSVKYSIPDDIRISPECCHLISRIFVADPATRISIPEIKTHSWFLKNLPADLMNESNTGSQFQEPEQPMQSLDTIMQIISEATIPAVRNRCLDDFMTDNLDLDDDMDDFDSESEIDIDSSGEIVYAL

[8] = biological target: T4, SnRK2.6-nLUC (Arabidopsis thaliana); assay: as above
[9] = biological target: T7, SnRK2.6 with MYC tag (Arabidopsis thaliana) (UniProt Q940H6); assay: co-IP; co-transformed Arabidopsis protoplasts; lysate (50 mM Tris-HCl pH 7.4, 150 mM NaCl, 1 mM EDTA, 0.1% Triton X-100) with anti-HA-agarose or anti-MYC-agarose at 4°C; Western blot
T7 sequence: T2 sequence

[10] = biological target: T8, BD-PYL11 (Arabidopsis thaliana) (UniProt Q9FJ50); assay: two-hybrid; AD fusions with BD-PYLs in S. cerevisiae AH109; growth on SD medium lacking Leu, Trp, His in the presence of 10 uM ABA
T8 sequence: T3 sequence

[11] = biological target: T1, BD-SnRK2.2 (Arabidopsis thaliana); assay: two-hybrid; AD fusions (pGADT7) with BD fusions in S. cerevisiae AH109; growth on SD medium lacking Leu, Trp, His in the absence or presence of 10 uM ABA (the text does not tell the two apart); 1 mM 3-AT to reduce self-activation of BD-SnRK2s; 30°C; remark: listed apart in the source
[12] = biological target: T9, BD-SnRK2.3 (Arabidopsis thaliana) (UniProt Q39193); assay: as above
T9 sequence: T6 sequence

[13] = biological target: T2, BD-SnRK2.6 (Arabidopsis thaliana); assay: as above; remark: listed apart in the source
[14] = biological target: T10, BD-SnRK2.8 (Arabidopsis thaliana) (UniProt Q9M9E9); assay: as above
T10 sequence: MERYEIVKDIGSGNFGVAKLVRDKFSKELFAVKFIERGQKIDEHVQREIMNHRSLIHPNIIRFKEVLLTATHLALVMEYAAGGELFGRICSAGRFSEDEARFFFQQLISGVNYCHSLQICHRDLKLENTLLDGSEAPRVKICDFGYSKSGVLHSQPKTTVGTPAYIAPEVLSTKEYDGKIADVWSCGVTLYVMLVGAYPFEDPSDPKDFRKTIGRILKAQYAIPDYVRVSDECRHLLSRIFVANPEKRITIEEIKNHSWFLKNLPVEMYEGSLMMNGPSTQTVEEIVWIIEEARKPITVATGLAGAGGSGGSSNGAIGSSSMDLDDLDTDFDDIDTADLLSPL

[15] = biological target: TOPP1 (two-hybrid partner of AD-AtI-2) (Arabidopsis thaliana) (UniProt P30366); assay: as above
[16] = biological target: cLUC-TOPP1 (Arabidopsis thaliana) (UniProt P30366); assay: split reporter; split-luciferase complementation; nLUC and cLUC fusions co-expressed in N. benthamiana leaves by Agrobacterium infiltration, LUC activity imaged after 2 days

Molecule: AD-TOPP2 (from UniProt P48482 1-312) (enzyme)
- binding [1]: binds
- binding [2]: binds

Molecule: cLUC-TOPP1 (from UniProt P30366 1-318) (enzyme)
- binding [3]: binds
- binding [4]: binds
- binding [5]: binds
- binding [6]: binds
- binding [7]: binds
- binding [8]: binds weakly

Molecule: ABI1-cLUC (from UniProt P49597 1-434) (enzyme)
- binding [5]: binds
- binding [8]: binds

Molecule: TOPP1 (expressed in protoplasts for Co-IP) (from UniProt P30366 1-318) (enzyme)
- binding [9]: binds

Molecule: AD-ABI1 (from UniProt P49597 1-434) (enzyme)
- binding [2]: binds

B1: AD-AtI-2 (protein, UniProt Q9LTK0 1-191)
chain: MTEPKRGRVQWDEANIVEIESNKPVRQKITEPKTPYHPMMDDDGSLSPRGRAFDECVDDMQRAEELRNVLNDAAASSSRNSSQGSGGGGWSSSDEEEEEADPMDQDEEGSGSGKNERFNAHRKAHYDEFRKVKELRSSGSFYEEEEEEDDGAKGSKSETTTNSRHTKGGNKELDATKTVSGTSSSSSPELI
- binding [10]: binds
- binding [11]: binds
- binding [12]: binds
- binding [13]: binds
- binding [14]: binds
- binding [15]: binds

B2: AtI-2-nLUC (protein, UniProt Q9LTK0 1-191)
chain: B1 chain
- binding [16]: binds

B3: cLUC-AtI-2 (protein, UniProt Q9LTK0 1-191)
chain: B1 chain
- binding [5]: binds
- binding [6]: binds
- binding [7]: binds
- binding [8]: binds

B4: AtI-2 (expressed in protoplasts for Co-IP) (protein, UniProt Q9LTK0 1-191)
chain: B1 chain
- binding [9]: binds
